Results on two compounds are retold here after ChEMBL document CHEMBL5674883, “The Heterochromatin Landscape in Migrating Cells and the Importance of H3K27me3 for Associated Transcriptome Alterations” (Cells, 2018).

The chains behind the UniProt entries cited, without tags or fusion partners.
UniProt Q61188, whole entry: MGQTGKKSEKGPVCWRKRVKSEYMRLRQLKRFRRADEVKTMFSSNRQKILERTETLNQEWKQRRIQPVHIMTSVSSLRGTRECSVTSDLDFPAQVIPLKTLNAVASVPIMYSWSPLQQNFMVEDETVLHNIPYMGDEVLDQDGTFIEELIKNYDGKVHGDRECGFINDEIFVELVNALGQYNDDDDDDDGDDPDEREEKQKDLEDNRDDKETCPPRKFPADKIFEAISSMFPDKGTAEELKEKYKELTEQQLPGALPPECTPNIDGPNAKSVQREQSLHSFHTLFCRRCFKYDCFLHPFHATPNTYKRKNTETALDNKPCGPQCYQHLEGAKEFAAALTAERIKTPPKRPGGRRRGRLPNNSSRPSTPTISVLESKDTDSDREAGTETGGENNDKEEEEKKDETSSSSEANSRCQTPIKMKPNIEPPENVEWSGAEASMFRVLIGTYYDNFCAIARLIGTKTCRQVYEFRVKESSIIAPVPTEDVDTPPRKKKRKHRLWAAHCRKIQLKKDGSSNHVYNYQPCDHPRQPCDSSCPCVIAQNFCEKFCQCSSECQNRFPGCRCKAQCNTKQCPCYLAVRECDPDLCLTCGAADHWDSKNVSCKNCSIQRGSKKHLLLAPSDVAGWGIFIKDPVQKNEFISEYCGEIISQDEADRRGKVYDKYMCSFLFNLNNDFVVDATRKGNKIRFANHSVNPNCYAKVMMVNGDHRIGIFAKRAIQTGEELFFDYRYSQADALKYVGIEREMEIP

What all share (assay type): cell-based
In test [1] the target is T1, RNA polymerase II (Mus musculus) (UniProt P08775+Q8CFI7+P97760+A0A3Q4L2S8+Q80UW8+P61219+P62488+Q923G2+P60898+O08740+Q63871+P62876). As to the kind of experiment: Inhibition of RNA polymerase II in mouse B16-F1 migrating cells assessed as fold change in Pggt1b-RNA stability at 0.1 mM measured by ChIP-seq analysis relative to control cells.
Test [2] has as its target T1, RNA polymerase II (Mus musculus). As to the kind of experiment: Inhibition of RNA polymerase II in mouse B16-F1 migrating cells assessed as fold change in Cntn1-RNA stability at 0.1 mM measured by ChIP-seq analysis relative to control cells.
Test [3] has the same target. As to the kind of experiment: Inhibition of RNA polymerase II in mouse B16-F1 migrating cells assessed as fold change in Ndc80-RNA stability at 0.1 mM measured by ChIP-seq analysis relative to control cells.
For test [4] the target is unchanged. As to the kind of experiment: Inhibition of RNA polymerase II in mouse B16-F1 migrating cells assessed as fold change in Ncl-RNA stability at 0.1 mM measured by ChIP-seq analysis relative to control cells.
For test [5] the target is unchanged. As to the kind of experiment: Inhibition of RNA polymerase II in mouse B16-F1 migrating cells assessed as fold change in Golim4-RNA stability at 0.1 mM measured by ChIP-seq analysis relative to control cells.
Test [6] has the same target. As to the kind of experiment: Inhibition of RNA polymerase II in mouse B16-F1 migrating cells assessed as fold change in Lrp10-RNA stability at 0.1 mM measured by ChIP-seq analysis relative to control cells.
The target is the same in test [7]. As to the kind of experiment: Inhibition of RNA polymerase II in mouse B16-F1 migrating cells assessed as fold change in Acvrl1-RNA stability at 0.1 mM measured by ChIP-seq analysis relative to control cells.
For test [8] the target is unchanged. Put plainly: Inhibition of RNA polymerase II in mouse B16-F1 migrating cells assessed as fold change in Smc5-RNA stability at 0.1 mM measured by ChIP-seq analysis relative to control cells.
Test [9] has the same target. As to the kind of experiment: Inhibition of RNA polymerase II in mouse B16-F1 migrating cells assessed as fold change in Pi4k2b-RNA stability at 0.1 mM measured by ChIP-seq analysis relative to control cells.
Test [10] shares this target. As to the kind of experiment: Inhibition of RNA polymerase II in mouse B16-F1 migrating cells assessed as fold change in Rpl37a-RNA stability at 0.1 mM measured by ChIP-seq analysis relative to control cells.
The target is the same in test [11]. As to the kind of experiment: Inhibition of RNA polymerase II in mouse B16-F1 migrating cells assessed as fold change in Arih1-RNA stability at 0.1 mM measured by ChIP-seq analysis relative to control cells.
Test [12] shares this target. Put plainly: Inhibition of RNA polymerase II in mouse B16-F1 migrating cells assessed as fold change in Fndc10-RNA stability at 0.1 mM measured by ChIP-seq analysis relative to control cells.
Test [13] has the same target. Put plainly: Inhibition of RNA polymerase II in mouse B16-F1 migrating cells assessed as fold change in Actr2-RNA stability at 0.1 mM measured by ChIP-seq analysis relative to control cells.
Test [14] has the same target. Put plainly: Inhibition of RNA polymerase II in mouse B16-F1 migrating cells assessed as fold change in Papola-RNA stability at 0.1 mM measured by ChIP-seq analysis relative to control cells.
The target is the same in test [15]. Put plainly: Inhibition of RNA polymerase II in mouse B16-F1 migrating cells assessed as fold change in Timm22-RNA stability at 0.1 mM measured by ChIP-seq analysis relative to control cells.
For test [16] the target is unchanged. Put plainly: Inhibition of RNA polymerase II in mouse B16-F1 migrating cells assessed as fold change in Ascc3-RNA stability at 0.1 mM measured by ChIP-seq analysis relative to control cells.
In test [17] the target is Histone-lysine N-methyltransferase EZH2 (Mus musculus) (UniProt Q61188). As to the kind of experiment: Inhibition of EZH2 in mouse B16-F1 migrating cells assessed as fold change in H3K27me3-dependent regulated Arrdc3-mRNA expression at 3 uM measured by ChIP-seq analysis relative to control cells.
Test [18] shares this target. Put plainly: Inhibition of EZH2 in mouse B16-F1 migrating cells assessed as fold change in H3K27me3-buffered regulated Nudt18-mRNA expression at 3 uM measured by ChIP-seq analysis relative to control cells.
For test [19] the target is unchanged. As to the kind of experiment: Inhibition of EZH2 in mouse B16-F1 migrating cells assessed as fold change in H3K27me3-buffered regulated Gpc1-mRNA expression at 3 uM measured by ChIP-seq analysis relative to control cells.
Test [20] has the same target. Put plainly: Inhibition of EZH2 in mouse B16-F1 migrating cells assessed as fold change in H3K27me3-independent regulated Rgma-mRNA expression at 3 uM measured by ChIP-seq analysis relative to control cells.
For test [21] the target is unchanged. As to the kind of experiment: Inhibition of EZH2 in mouse B16-F1 migrating cells assessed as fold change in H3K27me3-buffered regulated Ppm1k-mRNA expression at 3 uM measured by ChIP-seq analysis relative to control cells.
For test [22] the target is unchanged. Put plainly: Inhibition of EZH2 in mouse B16-F1 migrating cells assessed as fold change in H3K27me3-independent regulated Clybl-mRNA expression at 3 uM measured by ChIP-seq analysis relative to control cells.
Test [23] shares this target. Put plainly: Inhibition of EZH2 in mouse B16-F1 migrating cells assessed as fold change in H3K27me3-buffered regulated Thoc2-mRNA expression at 3 uM measured by ChIP-seq analysis relative to control cells.
Test [24] has the same target. Put plainly: Inhibition of EZH2 in mouse B16-F1 migrating cells assessed as fold change in H3K27me3-buffered regulated Tubb3-mRNA expression at 3 uM measured by ChIP-seq analysis relative to control cells.
Test [25] shares this target. As to the kind of experiment: Inhibition of EZH2 in mouse B16-F1 migrating cells assessed as fold change in H3K27me3-buffered regulated Dclk1-mRNA expression at 3 uM measured by ChIP-seq analysis relative to control cells.
The target is the same in test [26]. Put plainly: Inhibition of EZH2 in mouse B16-F1 migrating cells assessed as fold change in H3K27me3-buffered regulated Zfp326-mRNA expression at 3 uM measured by ChIP-seq analysis relative to control cells.
Test [27] has the same target. As to the kind of experiment: Inhibition of EZH2 in mouse B16-F1 migrating cells assessed as fold change in H3K27me3-independent regulated Kif20b-mRNA expression at 3 uM measured by ChIP-seq analysis relative to control cells.
For test [28] the target is unchanged. Put plainly: Inhibition of EZH2 in mouse B16-F1 migrating cells assessed as fold change in H3K27me3-buffered regulated Gsn-mRNA expression at 3 uM measured by ChIP-seq analysis relative to control cells.
Test [29] has the same target. Put plainly: Inhibition of EZH2 in mouse B16-F1 migrating cells assessed as fold change in H3K27me3-buffered regulated Cdkn1b-mRNA expression at 3 uM measured by ChIP-seq analysis relative to control cells.
Test [30] has the same target. Put plainly: Inhibition of EZH2 in mouse B16-F1 migrating cells assessed as fold change in H3K27me3-buffered regulated Cep85l-mRNA expression at 3 uM measured by ChIP-seq analysis relative to control cells.

Each structure is given as a SMILES string. Further values from the same series stand in other lists.

As for `OC[C@H]1O[C@@H](n2cnc3cc(Cl)c(Cl)cc32)[C@H](O)[C@@H]1O`, the log2FC was -0.57 in test [1]; -0.86 in [2]; -0.61 in [3]; -0.71 in test [4]; -0.66 in [5]; 0.57 in [6]. In addition, the log2FC in [7] is 0.83; in test [8], -0.79; in test [9], -0.64; in test [10] it was 0.46; in test [11] it was -0.44; in [12] it was 0.69. For the same compound, the log2FC in test [13] was -0.77; in [14], -0.43; in test [15], 0.38; in test [16], -0.54.

On to `CCCc1cc(C)[nH]c(=O)c1CNC(=O)c1cc(-c2ccnc(N3CCN(C)CC3)c2)cc2c1cnn2C(C)C`, for which the log2FC in [17] is -0.35; in [18], 0.42; in [19], 0.43; in [20], -0.72; in test [21], -0.76; in test [22], 0.58. The log2FC in test [23] was -0.43; in [24], 0.47; in test [25], 0.38; in [26] it was -0.42; in [27] it was -0.9; in test [28], 0.42. In addition, the results for the log2FC in test [29] and in [30] were -0.43 and -0.69, respectively.
